Test results as given in patent publication EP4778924A1 (Huons Co., Ltd., priority 2023, dated 2025).
Some results were stated once for a whole list of compounds, not compound by compound.

Protein sequences, listed by entry. Tags and fused reporters are not part of them. Residues count along the entry.
UniProt P19156, 2-1034 limits assumed: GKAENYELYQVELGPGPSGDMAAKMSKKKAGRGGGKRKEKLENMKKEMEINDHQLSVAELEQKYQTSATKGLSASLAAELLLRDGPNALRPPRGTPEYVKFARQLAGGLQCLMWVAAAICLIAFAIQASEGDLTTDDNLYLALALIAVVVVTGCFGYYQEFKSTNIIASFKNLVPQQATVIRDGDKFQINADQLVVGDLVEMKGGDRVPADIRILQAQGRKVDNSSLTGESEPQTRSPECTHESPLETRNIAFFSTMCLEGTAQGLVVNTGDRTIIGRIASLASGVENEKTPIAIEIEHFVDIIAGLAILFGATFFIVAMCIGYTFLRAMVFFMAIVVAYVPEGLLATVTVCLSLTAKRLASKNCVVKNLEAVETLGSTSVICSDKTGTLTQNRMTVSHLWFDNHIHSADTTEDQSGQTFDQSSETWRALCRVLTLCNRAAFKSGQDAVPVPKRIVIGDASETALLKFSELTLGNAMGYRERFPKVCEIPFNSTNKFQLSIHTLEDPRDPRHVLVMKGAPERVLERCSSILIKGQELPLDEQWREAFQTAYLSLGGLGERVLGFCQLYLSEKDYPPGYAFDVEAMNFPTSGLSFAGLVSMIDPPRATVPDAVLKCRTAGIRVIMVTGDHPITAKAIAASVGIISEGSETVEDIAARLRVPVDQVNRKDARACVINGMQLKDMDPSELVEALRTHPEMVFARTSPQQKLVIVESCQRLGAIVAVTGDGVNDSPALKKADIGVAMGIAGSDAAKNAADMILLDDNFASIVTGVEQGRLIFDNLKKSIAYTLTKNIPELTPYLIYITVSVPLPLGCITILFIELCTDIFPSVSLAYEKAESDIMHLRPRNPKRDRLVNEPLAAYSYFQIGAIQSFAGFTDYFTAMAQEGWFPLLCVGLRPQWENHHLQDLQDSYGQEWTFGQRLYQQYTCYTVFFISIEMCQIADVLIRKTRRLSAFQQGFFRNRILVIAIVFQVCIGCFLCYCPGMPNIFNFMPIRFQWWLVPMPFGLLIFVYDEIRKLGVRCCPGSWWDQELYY

Target: T1, Proton Pump (H^+,K^+-ATPase) (Sus scrofa, UniProt P19156)
T1 construct: gastric vesicles were isolated from porcine stomachs; from tissue; host or cells: porcine stomach (gastric vesicles)
Assay: Inhibitory activity on proton pump (H+,K+-ATPase) activity, porcine gastric vesicles, malachite green readout
Format: biochemical
Details: result in words
Method: Specifically, gastric vesicles were isolated from porcine stomachs, and the protein content of the vesicles was quantified using a BSA kit (Bio-Rad, 5000205). All reactions were performed in 96-well plates with a reaction volume of […] containing 100 ng of vesicles. 10 mM valinomycin and the test compound were added to reaction buffer (50 mM Tris-HEPES, 5 mM MgCl2, 8 mM KCl, pH 6.5) containing porcine gastric vesicles at various concentrations, and the mixture was incubated at 37°C for 30 minutes. DMSO or test compounds at different concentrations were added after diluting them to a final DMSO concentration of 0.1%. 0.2 mM adenosine triphosphate (ATP) was then added to the reaction buffer and incubated at 37°C for 20 minutes. The reaction was stopped with 0.2% Tween 20, followed by the addition of malachite green (Sigma Aldrich, MAK307) and incubation at room temperature for 30 minutes. The optical density (OD) value was measured at 620 nm using a microplate reader (Spectramax M5e, Molecular devices). The percent (%) inhibition was derived from the OD values of the control group and various concentrations of the test compounds. The IC50 of the test compounds was analyzed using nonlinear regression using the GraphPad Prism8 program using the % inhibition value at each concentration.

Row | SMILES | inhibitory activity against proton pump activity
1 | Cc1cc(F)cc(C)c1CNc1cc(NC(=O)N2CCC2)cn2c(C)c(C)nc12.O=C(O)CC(O)(CC(=O)O)C(=O)O [Example 51, N-(8-((4-fluoro-2,6-dimethylbenzyl)amino)-2,3-dimethylimidazo[1,2-a]pyridin-6-yl)azetidine-1-carboxamide citrate] | excellent inhibitory properties
2 | Cc1cccc(C)c1CNc1cc(NC(=O)NCCO)cn2c(C)c(C)nc12.O=C(O)CC(O)(CC(=O)O)C(=O)O [Example 88, 1-(8-((2,6-dimethylbenzyl)amino)-2,3-dimethylimidazo[1,2-a]pyridin-6-yl)-3-(2-hydroxyethyl)urea citrate] | excellent inhibitory properties
3 | Cc1cc(F)cc(C)c1CNc1cc(NC(=O)N(C)C)cn2c(C)c(C)nc12.Cl [Example 49, 3-(8-((4-fluoro-2,6-dimethylbenzyl)amino)-2,3-dimethylimidazo[1,2-a]pyridin-6-yl)-1,1-dimethylurea hydrochloride] | excellent inhibitory properties
4 | CNC(=O)Nc1cc(NCc2c(C)cc(F)cc2C)c2nc(C)c(C)n2c1.Cl [Example 44, 1-(8-((4-fluoro-2,6-dimethylbenzyl)amino)-2,3-dimethylimidazo[1,2-a]pyridin-6-yl)-3-methylurea hydrochloride] | excellent inhibitory properties
5 | Cc1cc(F)cc(C)c1CNc1cc(NC(=O)CO)cn2c(C)c(C)nc12.O=C(O)CC(O)(CC(=O)O)C(=O)O [Example 86, N-(8-((4-fluoro-2,6-dimethylbenzyl)amino)-2,3-dimethylimidazo[1,2-a]pyridin-6-yl)-2-hydroxyacetamide citrate] | excellent inhibitory properties
6 | Cc1cc(F)cc(C)c1CNc1cc(NC(=O)CCO)cn2c(C)c(C)nc12.O=C(O)CC(O)(CC(=O)O)C(=O)O [Example 101, N-(8-((4-fluoro-2,6-dimethylbenzyl)amino)-2,3-dimethylimidazo[1,2-a]pyridin-6-yl)-3-hydroxypropanamide citrate] | excellent inhibitory properties
7 | Cc1cc(F)cc(C)c1CNc1cc(NC(=O)NC2CC2)cn2c(C)c(C)nc12.Cl [Example 50, 1-cyclopropyl-3-(8-((4-fluoro-2,6-dimethylbenzyl)amino)-2,3-dimethylimidazo[1,2-a]pyridin-6-yl)urea hydrochloride] | excellent inhibitory properties
8 | Cc1cccc(C)c1CNc1cc(NC(=O)[C@@H]2CNCCN2)cn2c(C)c(C)nc12.Cl [Example 94, (S)-N-(8-((2,6-dimethylbenzyl)amino)-2,3-dimethylimidazo[1,2-a]pyridin-6-yl)piperazine-2-carboxamide hydrochloride] | excellent inhibitory properties
9 | CC(=O)Nc1cc(NCc2c(C)cc(F)cc2C)c2nc(C)c(C)n2c1.Cl [Example 45, N-(8-((4-fluoro-2,6-dimethylbenzyl)amino)-2,3-dimethylimidazo[1,2-a]pyridin-6-yl)acetamide hydrochloride] | excellent inhibitory properties
10 | Cc1cccc(C)c1CNc1cc(NC(=O)N(C)C)cn2c(C)c(C)nc12.Cl [Example 43, 3-(8-((2,6-dimethylbenzyl)amino)-2,3-dimethylimidazo[1,2-a]pyridin-6-yl)-1,1-dimethylurea hydrochloride] | excellent inhibitory properties
11 | Cc1cccc(C)c1CNc1cc(NC(=O)CCO)cn2c(C)c(C)nc12.O=C(O)CC(O)(CC(=O)O)C(=O)O [Example 102, N-(8-((2,6-dimethylbenzyl)amino)-2,3-dimethylimidazo[1,2-a]pyridin-6-yl)-3-hydroxypropanamide citrate] | excellent inhibitory properties
12 | Cc1cccc(C)c1CNc1cc(NC(=O)C[C@@H]2CCCN2)cn2c(C)c(C)nc12.Cl [Example 93, (S)-N-(8-((2,6-dimethylbenzyl)amino)-2,3-dimethylimidazo[1,2-a]pyridin-6-yl)-2-(pyrrolidin-2-yl)acetamide hydrochloride] | excellent inhibitory properties
13 | Cc1cccc(C)c1CNc1cc(NC(=O)CNC(=O)CO)cn2c(C)c(C)nc12 [Example 95, N-(8-((2,6-dimethylbenzyl)amino)-2,3-dimethylimidazo[1,2-a]pyridin-6-yl)-2-(2-hydroxyacetamido)acetamide] | excellent inhibitory properties
14 | COCC(=O)Nc1cc(NCc2c(C)cc(F)cc2C)c2nc(C)c(C)n2c1.O=C(O)CC(O)(CC(=O)O)C(=O)O [Example 100, N-(8-((4-fluoro-2,6-dimethylbenzyl)amino)-2,3-dimethylimidazo[1,2-a]pyridin-6-yl)-2-methoxyacetamide citrate] | excellent inhibitory properties
15 | Cc1cccc(C)c1CNc1cc(NC(=O)N(C)CCN)cn2c(C)c(C)nc12.Cl [Example 87, 1-(2-aminoethyl)-3-(8-((2,6-dimethylbenzyl)amino)-2,3-dimethylimidazo[1,2-a]pyridin-6-yl)-1-methylurea hydrochloride] | excellent inhibitory properties
